Measurements reported in paper PMC6687951.
No constants are given. Whether binding was seen depends on the method and setting. In cells and extracts the contact can be indirect. Some results given as binding are weak or reduced against the parent protein; the word gives no strength.

The chains behind the UniProt entries cited, without tags or fusion partners. Where a name states a change or a piece, a line headed by the entry shows the natural chain unless it says otherwise.
UniProt Q5S007: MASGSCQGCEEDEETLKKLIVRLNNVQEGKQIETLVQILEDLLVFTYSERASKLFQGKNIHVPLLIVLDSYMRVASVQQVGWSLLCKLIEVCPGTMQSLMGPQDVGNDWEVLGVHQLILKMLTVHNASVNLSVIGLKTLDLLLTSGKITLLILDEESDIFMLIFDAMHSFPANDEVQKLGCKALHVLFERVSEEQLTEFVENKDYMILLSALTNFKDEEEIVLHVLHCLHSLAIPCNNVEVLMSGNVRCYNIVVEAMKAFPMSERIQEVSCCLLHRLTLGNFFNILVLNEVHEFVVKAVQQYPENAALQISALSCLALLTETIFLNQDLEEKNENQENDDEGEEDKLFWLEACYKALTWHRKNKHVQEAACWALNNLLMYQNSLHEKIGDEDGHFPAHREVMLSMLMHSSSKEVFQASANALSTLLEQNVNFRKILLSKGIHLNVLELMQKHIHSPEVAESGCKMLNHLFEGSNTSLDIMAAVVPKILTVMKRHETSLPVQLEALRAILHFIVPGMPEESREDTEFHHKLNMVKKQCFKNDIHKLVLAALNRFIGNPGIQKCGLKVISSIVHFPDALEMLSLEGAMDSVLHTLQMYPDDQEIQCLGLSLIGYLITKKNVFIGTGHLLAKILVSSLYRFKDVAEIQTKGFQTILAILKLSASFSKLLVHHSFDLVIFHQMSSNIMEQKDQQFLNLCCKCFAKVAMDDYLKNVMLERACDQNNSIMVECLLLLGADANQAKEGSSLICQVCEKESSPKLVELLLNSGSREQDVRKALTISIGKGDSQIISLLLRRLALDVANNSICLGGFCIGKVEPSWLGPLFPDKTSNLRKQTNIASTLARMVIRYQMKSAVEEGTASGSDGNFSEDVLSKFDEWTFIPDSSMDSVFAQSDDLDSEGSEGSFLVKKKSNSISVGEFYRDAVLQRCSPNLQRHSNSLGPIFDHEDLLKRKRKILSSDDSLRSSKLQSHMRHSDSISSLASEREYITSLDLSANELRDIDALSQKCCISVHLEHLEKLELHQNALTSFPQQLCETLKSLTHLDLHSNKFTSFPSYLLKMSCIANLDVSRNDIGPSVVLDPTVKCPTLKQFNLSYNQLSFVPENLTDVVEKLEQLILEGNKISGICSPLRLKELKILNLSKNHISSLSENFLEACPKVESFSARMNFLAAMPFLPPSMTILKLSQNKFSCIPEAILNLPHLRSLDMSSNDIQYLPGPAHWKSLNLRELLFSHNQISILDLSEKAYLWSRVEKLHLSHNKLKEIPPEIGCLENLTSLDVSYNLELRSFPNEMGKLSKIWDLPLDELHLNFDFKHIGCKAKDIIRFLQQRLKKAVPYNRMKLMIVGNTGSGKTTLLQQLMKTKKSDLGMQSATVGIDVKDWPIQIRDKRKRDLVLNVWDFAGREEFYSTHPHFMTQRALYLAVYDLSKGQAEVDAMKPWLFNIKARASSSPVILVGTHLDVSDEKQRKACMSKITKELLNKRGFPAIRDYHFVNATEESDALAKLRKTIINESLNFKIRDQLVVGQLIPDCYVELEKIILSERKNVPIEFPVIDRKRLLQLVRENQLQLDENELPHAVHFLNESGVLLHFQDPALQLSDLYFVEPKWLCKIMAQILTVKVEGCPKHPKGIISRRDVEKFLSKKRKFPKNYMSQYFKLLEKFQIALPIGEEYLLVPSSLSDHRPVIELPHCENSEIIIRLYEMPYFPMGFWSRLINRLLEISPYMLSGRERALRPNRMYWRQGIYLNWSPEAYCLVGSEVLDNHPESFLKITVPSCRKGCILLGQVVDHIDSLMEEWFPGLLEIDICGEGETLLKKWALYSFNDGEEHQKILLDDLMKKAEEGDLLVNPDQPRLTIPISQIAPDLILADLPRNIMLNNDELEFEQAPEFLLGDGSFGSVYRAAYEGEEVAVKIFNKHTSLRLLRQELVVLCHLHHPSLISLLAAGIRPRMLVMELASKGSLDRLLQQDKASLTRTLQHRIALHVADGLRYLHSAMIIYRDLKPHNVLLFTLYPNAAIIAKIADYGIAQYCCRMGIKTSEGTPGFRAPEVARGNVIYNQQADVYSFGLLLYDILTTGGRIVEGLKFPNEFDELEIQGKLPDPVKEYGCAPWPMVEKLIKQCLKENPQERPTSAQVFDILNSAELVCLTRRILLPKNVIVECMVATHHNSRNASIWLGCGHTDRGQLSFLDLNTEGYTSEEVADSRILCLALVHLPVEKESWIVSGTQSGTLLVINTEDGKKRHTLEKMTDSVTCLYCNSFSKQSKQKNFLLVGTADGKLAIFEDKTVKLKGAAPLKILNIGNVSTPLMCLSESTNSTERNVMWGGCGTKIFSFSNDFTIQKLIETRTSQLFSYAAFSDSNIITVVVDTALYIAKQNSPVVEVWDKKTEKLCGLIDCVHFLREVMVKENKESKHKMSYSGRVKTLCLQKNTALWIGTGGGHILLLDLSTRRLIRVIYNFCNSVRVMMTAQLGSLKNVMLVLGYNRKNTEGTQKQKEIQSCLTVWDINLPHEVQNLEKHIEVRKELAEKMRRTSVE
UniProt P25286: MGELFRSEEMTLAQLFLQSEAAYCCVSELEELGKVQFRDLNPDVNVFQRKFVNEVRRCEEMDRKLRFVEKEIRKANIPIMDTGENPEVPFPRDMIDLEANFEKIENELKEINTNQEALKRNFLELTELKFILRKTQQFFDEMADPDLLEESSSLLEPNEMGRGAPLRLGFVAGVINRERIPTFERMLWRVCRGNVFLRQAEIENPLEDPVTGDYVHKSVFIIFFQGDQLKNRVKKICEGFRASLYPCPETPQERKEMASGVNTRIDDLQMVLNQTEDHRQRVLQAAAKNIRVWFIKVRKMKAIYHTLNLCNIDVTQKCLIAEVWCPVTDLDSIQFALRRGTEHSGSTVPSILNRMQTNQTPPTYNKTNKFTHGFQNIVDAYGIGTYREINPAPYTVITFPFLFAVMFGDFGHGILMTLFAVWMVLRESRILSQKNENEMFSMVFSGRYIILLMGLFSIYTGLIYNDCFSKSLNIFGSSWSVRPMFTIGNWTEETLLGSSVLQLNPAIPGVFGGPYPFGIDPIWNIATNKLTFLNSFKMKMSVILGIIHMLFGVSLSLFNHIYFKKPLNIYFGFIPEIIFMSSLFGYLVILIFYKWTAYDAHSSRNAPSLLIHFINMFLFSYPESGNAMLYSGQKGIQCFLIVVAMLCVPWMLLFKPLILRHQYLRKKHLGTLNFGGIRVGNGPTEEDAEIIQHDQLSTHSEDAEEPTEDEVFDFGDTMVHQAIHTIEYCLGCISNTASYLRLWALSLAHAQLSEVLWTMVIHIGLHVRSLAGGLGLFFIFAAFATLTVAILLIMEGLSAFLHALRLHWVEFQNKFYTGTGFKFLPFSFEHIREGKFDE

Assays:
Experiment in all cases: co-IP; Dynabeads Protein G loaded with antibody (40 ug; YPet or vATPase a1), incubated with 150 ug lysate of DIV 14 primary cortical neuronal cultures from LRRK2 transgenic rats for 3 days at 4 C; washed in PBS +/+; blotted for vATPase a1 / YPet
[1] = biological target: human LRRK2-G2019S, YPet-tagged (human) (UniProt Q5S007)
[2] = biological target: human LRRK2-R1441C, YPet-tagged (human) (UniProt Q5S007)
[3] = biological target: human wild-type leucine-rich repeat kinase 2 (hWT-LRRK2), YPet-tagged (human) (UniProt Q5S007)

- binding [1]: binds
- binding [2]: no binding
- binding [3]: binds
Substance: a1 subunit of the v-type H+ ATPase proton pump (vATPase a1) (from UniProt P25286 1-838)
